In article PMC9065199:
Results are given in words; binding and its absence hold for the method and conditions named. Binding seen in cells or lysates may run through a third protein. Here binding means that the protein was enriched with, or labelled near, the bait; the list need not be complete. Where a sequence is shown, tags or fusion partners need not be part of it.

Protein sequences, listed by entry. Tags and fused reporters are not part of them. Residues count along the entry.
UniProt O95299, residues 36-355: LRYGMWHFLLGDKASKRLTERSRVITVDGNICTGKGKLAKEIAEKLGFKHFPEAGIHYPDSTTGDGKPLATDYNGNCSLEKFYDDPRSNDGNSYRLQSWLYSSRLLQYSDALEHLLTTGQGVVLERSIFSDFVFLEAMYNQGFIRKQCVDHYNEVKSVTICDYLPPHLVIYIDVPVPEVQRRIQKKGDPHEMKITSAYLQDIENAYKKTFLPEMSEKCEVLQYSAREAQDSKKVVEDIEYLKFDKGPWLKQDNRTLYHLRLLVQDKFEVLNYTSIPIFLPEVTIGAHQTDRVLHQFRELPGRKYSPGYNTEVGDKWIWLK

Target: T1, Acylglycerol kinase (AGK), full-length, Flag-tagged (UniProt Q53H12)
T1 sequence: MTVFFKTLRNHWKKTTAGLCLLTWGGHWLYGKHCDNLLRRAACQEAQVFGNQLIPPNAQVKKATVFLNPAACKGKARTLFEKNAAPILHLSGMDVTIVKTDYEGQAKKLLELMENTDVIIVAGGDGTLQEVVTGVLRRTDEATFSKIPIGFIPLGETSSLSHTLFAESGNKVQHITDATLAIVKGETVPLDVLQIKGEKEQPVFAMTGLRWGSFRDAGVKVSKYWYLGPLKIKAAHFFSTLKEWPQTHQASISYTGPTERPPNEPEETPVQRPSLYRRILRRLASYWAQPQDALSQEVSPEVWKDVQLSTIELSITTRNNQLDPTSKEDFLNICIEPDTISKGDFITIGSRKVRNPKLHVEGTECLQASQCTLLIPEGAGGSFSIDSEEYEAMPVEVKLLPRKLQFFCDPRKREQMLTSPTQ
Experiment: affinity purification with mass spectrometry; HEK293T cells transfected with AGK-Flag or vector; Coomassie-stained gel, MS/MS of bands

binding: binds
Substance: NDUFA10, mitochondrial respiratory chain complex I subunit (endogenous, HEK293T) (from UniProt O95299 36-355)
